Laboratory results taken from article PMC4433056.

Protein sequences, listed by entry. Tags and fused reporters are not part of them. Lines headed by an entry give the natural chain unless they say otherwise; changes in a name come on top.
UniProt Q9QYM5: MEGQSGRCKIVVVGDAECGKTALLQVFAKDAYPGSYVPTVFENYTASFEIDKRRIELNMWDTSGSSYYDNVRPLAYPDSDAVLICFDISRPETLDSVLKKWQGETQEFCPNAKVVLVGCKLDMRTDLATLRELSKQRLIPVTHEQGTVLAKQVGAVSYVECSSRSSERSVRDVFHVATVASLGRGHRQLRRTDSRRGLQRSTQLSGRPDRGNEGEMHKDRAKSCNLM

Molecular target: Rnd2 bait construct lacking the C-terminal membrane-binding (CAAX) motif (UniProt Q9QYM5)
Test: two-hybrid; Rnd2 bait lacking the CAAX motif against prey clones of an embryonic mouse (E15.5) cortex library; complementation tests after prey plasmid recovery; growth on selection medium lacking histidine and adenine

| Binder | binding |
| --- | --- |
| full-length Bacurd2 (BTB-domain containing adaptor for Cul3-mediated RhoA degradation 2), two-hybrid prey (protein, UniProt O70479 1-316) MSGDTCLCPASGAKPKISGFKGGGLGNKYVQLNVGGSLYYTTVRALTRHDTMLKAMFSGRMEVLTDKEGWILIDRCGKHFGTILNYLRDDTITLPQSRQEIQELMAEAKYYLIQGLVSTCQTALQDKKDSYQPVCNIPIITSLREEDRLIESSTKPVVKLLYNRSNNKYSYTSNSDDHLLKNIELFDKLSLRFNGRVLFIKDVIGDEICCWSFYGQGRKLAEVCCTSIVYATEKKQTKVEFPEARIYEETLNVLLYETPRVPDNSLLEATSRSRSQASPSEDEDTFELRDRVRRIHVKRYSTYDDRQLGHQSTHRD | binds |
| Bacurd2 C-terminal aa242-316 fragment, two-hybrid prey (domain or fragment, UniProt O70479 242-316) PEARIYEETLNVLLYETPRVPDNSLLEATSRSRSQASPSEDEDTFELRDRVRRIHVKRYSTYDDRQLGHQSTHRD | binds |

These are yes or no findings as the source states them, for the method shown. A result given as binding can be weak or reduced; the word gives no strength.
